The nature of the assay: qHTS Assay for Lipid Storage Modulators in Drosophila S3 Cells.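 For cell number change: cells counted by Cell Tracker Red CMTPX staining in the red channel.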 To be noted: BODIPY lipid droplet fluorescence, 18-24 h; for cell number change: measured here: cell count max response, cells fed with added oleic acid. In outline: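 Drosophila S3 cells loaded with oleic acid (400 uM, as added) and compounds at several concentrations; lipid droplets imaged by 488-nm laser-scanning cytometry, 500–530 nm intensity and object ratio to cell channel. Percent activity normalized to 20 uM Triacsin C.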
On the technique in general: In qHTS, concentration-response curves come from the screen itself.

Setting [1] is: measured here: lipid fluorescence (Fed channel) AC50, cells fed with added oleic acid.
Setting [2] is: measured here: cell number channel AC50, cells fed with added oleic acid.

Some of the results follow. The main result of the screen is listed elsewhere. These columns were measured beside it and carry no call. The list favours compounds with an active or inconclusive main result. Potencies come from curve fits of mixed quality, noted in brackets.

Take `COc1ccc(-c2cc(C(F)(F)F)n3nc(C(=O)N4CCOCC4)nc3n2)cc1`: under setting [1], the AC50 (in general, the concentration at which the activity in the assay is half-maximal) was 29.1 µM [rising, partial curve].

As for `CN(C)/C=N/c1[nH]ncc1C#N`, the cell number change is -4.17%.

Consider `CC12CCC(C)(c3nc4ccccc4nc31)C2(C)C`, for which the cell number change turned out to be 73.2%.

Regarding `Cn1nc(C(C)(C)C)c([N+](=O)[O-])c1C(=O)NC(C)(C)C`, the cell number change is -6.97%. Further, the AC50 under setting [1] is 1.3 µM [falling, full curve, poor fit].

Regarding `CC(=O)Nc1ccc(NS(=O)(=O)c2ccc3[nH]c(=O)[nH]c3c2)cc1`, the cell number change worked out at 42.4%. The half-maximal activity concentration (AC50) under setting [2] was 0.92 µM [rising, full curve, poor fit]. In addition, under setting [1], the AC50 was 29.1 µM [rising, single point].

In the case of `COc1ccccc1OCCNC(=O)C1CC(=O)N(Cc2ccccc2)C1` (stereo not given), the cell number change stood at 18.9%. In addition, under setting [1], the AC50 is 0.092 µM [rising, full curve, poor fit].

`COc1ccccc1C(=O)NC(=O)COc1cc(Cl)ccc1Cl`: the cell number change was found to be 11.4%.

For `COc1ccc(C(=O)N/N=C/c2cccc3cccnc23)cc1`, the cell number change was 38.3%. The AC50 under setting [2] was 18.4 µM [rising, single point]. Besides, the AC50 under setting [1] was 29.1 µM [rising, single point].

Regarding `Cc1cc(NC(=O)c2ccc(Cl)cc2)n(CCC#N)n1`, the cell number change came out at 9.91%. The AC50 under setting [1] is 6.51 µM [rising, single point].

Turning to `O=C(CCCOc1ccc(Cl)cc1)N1CCOCC1`, the cell number change was -19%. For the same molecule, the AC50 under setting [1] was 29.1 µM [falling, single point].

On to `CCc1cc(C(=O)Nc2cc(S(=O)(=O)N(CC)CC)ccc2N2CCOCC2)sc1C`, for which the cell number change was -21.2%. Further, the AC50 under setting [1] is 29.1 µM [falling, single point].

Turning to `CCC(CC)C(=O)OCC(=O)Nc1ccc(S(=O)(=O)N2CCOCC2)cc1OC`, the cell number change is 25.9%. The AC50 under setting [2] was 0.291 µM [rising, full curve, poor fit]. In addition, under setting [1], the AC50 was 6.51 µM [rising, single point].

Turning to `CCC(=O)Nc1ccc2nc(SCC(=O)N3CCCC3)sc2c1`, the cell number change is 63.5%. In addition, the AC50 under setting [1] was 3.26 µM [rising, partial curve].

Turning to `O=Cc1c(N2CCSCC2)nc2ccccn2c1=O`, the cell number change was -25%. In addition, the concentration at half-maximal activity (AC50) under setting [2] is 0.651 µM [falling, single point]. The AC50 under setting [1] was 0.58 µM [falling, single point].

In the case of `COc1ccc(CC(=O)NNS(=O)(=O)c2ccccc2[N+](=O)[O-])cc1OC`, the cell number change turned out to be 3.85%. In addition, the half-maximal activity concentration (AC50) under setting [1] is 4.11 µM [falling, full curve].

Regarding `CCSc1sccc1C1C(C#N)=C(N)N(c2cccnc2)C2=C1C(=O)CC(C)(C)C2` (stereo not given), the cell number change stood at 15%. The AC50 under setting [1] is 0.0291 µM [rising, full curve, poor fit].

Consider `COC(=O)c1ccc(COC(=O)C2CCN(S(=O)(=O)c3c(Cl)cccc3Cl)CC2)o1`, for which, under setting [1], the half-maximal activity concentration (AC50) was 0.231 µM [rising, partial curve, poor fit].

For `Cc1nn(-c2ccccc2)c(Cl)c1CN(C(=O)CCl)c1ccc(Cl)cc1`, the cell number change is -28.8%. Besides, the AC50 under setting [1] was 9.2 µM [falling, partial curve].

In the case of `C=CCn1c(CCC)nc2ccccc21`, the cell number change is -9.87%. Besides, the AC50 under setting [1] is 2.06 µM [falling, partial curve, poor fit].

As to `CCOC(=O)Cn1nc(C)n(-c2ccc(F)cc2)c1=O`, the cell number change is -56.7%.

With `COc1ccc(C(=O)NCc2nnc(SCC(=O)N3CCc4ccccc43)n2Cc2ccccc2)cc1`, the cell number change amounted to 49.3%. Also, the AC50 under setting [2] is 16.4 µM [rising, single point].

On to `CCCCOc1ccc(C(=O)NCC(=O)NCC(c2ccco2)N2CCCCC2)cc1` (stereo not given), for which the cell number change is 31%. For the same molecule, the half-maximal activity concentration (AC50) under setting [2] was 11.6 µM [rising, partial curve, poor fit].

`Cc1cc(NC(=O)c2ccc(NC(=O)C3CC3)cc2)no1`: the cell number change amounted to 89.8%. The AC50 under setting [2] is 6.51 µM [falling, partial curve, poor fit]. Under setting [1], the AC50 is 6.51 µM [falling, partial curve, poor fit].

Regarding `CC(/C=C1\SC(=S)N(CCC(=O)Nc2ccc(O)cc2)C1=O)=C\c1ccccc1`, the cell number change was -62.1%. Besides, the AC50 under setting [2] was 9.2 µM [falling, partial curve]. Under setting [1], the AC50 was 10.3 µM [falling, partial curve, poor fit].

`CN(c1ccc(C(=O)Nc2cccnc2)cc1)S(C)(=O)=O`: the cell number change worked out at 6.43%. For the same molecule, the half-maximal activity concentration (AC50) under setting [2] was 0.731 µM [rising, single point].

Consider `COc1ccccc1-c1noc(-c2ccccc2C(=O)Nc2ccccc2)n1`, for which the cell number change turned out to be 26.3%. Under setting [2], the half-maximal activity concentration (AC50) was 0.0058 µM [rising, full curve, poor fit].

Take `COc1cccc(/C=N/NC(=O)c2ccc(OCc3cccc(Br)c3)cc2)c1`: the cell number change amounted to 34.5%. The AC50 under setting [2] is 13 µM [rising, partial curve, poor fit].

As to `COC(=O)c1ccc(C)c(NC(=O)CCSc2ccccc2)c1`, under setting [1], the half-maximal activity concentration (AC50) is 29.1 µM [falling, single point].

As to `Cn1nc(-c2ccccc2)c(-c2nc(-c3cccc(Cl)c3)no2)c1Cl`, the AC50 is 0.82 µM [rising, partial curve, poor fit] under setting [2] and 2.31 µM [rising, partial curve] under setting [1].

Take `CC(=O)Nc1ccc(S(=O)(=O)NCCC(=O)N2CCC(Cc3ccccc3)CC2)cc1`: the cell number change amounted to 29%. The concentration at half-maximal activity (AC50) under setting [1] was 0.231 µM [rising, full curve, poor fit].

Take `COc1ccc(C2(O)CCN(C(=O)c3c(F)cccc3F)CC2)cc1`: the cell number change was -7.05%. Also, under setting [1], the concentration at half-maximal activity (AC50) was 0.103 µM [falling, full curve, poor fit].

`CC1(C)CC(=O)C(=CN2CCOCC2)C(=O)C1`: the cell number change is -24.3%. For the same molecule, the AC50 under setting [2] was 5.17 µM [rising, partial curve, poor fit].

Turning to `C(=N\C(/N=C/c1ccco1)c1ccco1)/c1ccco1`, the cell number change came to 13%. The AC50 under setting [1] was 2.59 µM [rising, partial curve, poor fit].

For `CS(=O)(=O)c1ccc2nc(NC(=O)CN3C(=O)NC4(CCCC4)C3=O)sc2c1`, the cell number change was determined as 4.42%. Also, under setting [1], the half-maximal activity concentration (AC50) was 18.4 µM [rising, single point].

Turning to `Cc1ccc(-c2ccc(=O)n(Cc3cc(C)ccc3C)n2)cc1`, the cell number change was -76.8%. Moreover, the AC50 under setting [2] was 29.1 µM [falling, single point]. Further, the AC50 under setting [1] was 11.6 µM [falling, single point].

For the molecule `O=C(c1ccc(F)cc1)N1CCN(C2CC3CCC2C3)CC1` (stereo not given), the cell number change is -10.1%.

For the molecule `O=C(O)c1ccc(OCc2ccc(C(=O)O)o2)cc1`, the cell number change was -45%. In addition, under setting [2], the half-maximal activity concentration (AC50) is 29.1 µM [falling, single point].

As to `C=CCN1C(=O)C(Cc2ccc(OC)cc2)S/C1=N/N=C/c1ccco1` (stereo not given), the AC50 under setting [2] was 2.59 µM [rising, partial curve] and the AC50 under setting [1] was 1.64 µM [rising, partial curve].

Regarding `C=C(C)CSc1nnc(-c2ccccc2)n1N`, the cell number change turned out to be 1.74%.

For `Cc1ccc(S(=O)(=O)NCc2ccccc2)s1`, the cell number change was 12.5%.

With `O=C(OCC(=O)N1CCCc2ccccc21)c1cc(S(=O)(=O)N2CCOCC2)ccc1F`, the cell number change is -14.8%. The concentration at half-maximal activity (AC50) under setting [1] is 29.1 µM [rising, single point].

`COc1ccc(OC)c(NC(=O)c2cc(-c3cc(Cl)ccc3O)n[nH]2)c1`: the cell number change was -31.6%. In addition, under setting [2], the concentration at half-maximal activity (AC50) was 32.6 µM [falling, single point]. Moreover, the concentration at half-maximal activity (AC50) under setting [1] was 0.231 µM [rising, full curve, poor fit].

Take `Cc1ccc(S(=O)(=O)NC2CCCCCC2)cc1C(N)=O`: the cell number change was -7.92%. In addition, the AC50 under setting [1] is 29.1 µM [rising, single point].

With `Cc1cccn2c(CNCCCn3ncc4ccccc43)c(C(=O)N3CCCCC3)nc12`, the cell number change was -24.7%. For the same molecule, under setting [1], the AC50 was 3.26 µM [falling, single point].

On to `Cc1ccc(S(=O)(=O)N2CCN(C(=O)CN3CCCCC3)C2)cc1`, for which the cell number change is -27.1%. Moreover, the AC50 under setting [2] is 3.66 µM [falling, full curve, poor fit]. For the same molecule, the half-maximal activity concentration (AC50) under setting [1] is 20.6 µM [falling, single point].

On to `CN(CCO)c1c2c(nc3cc(-c4cccc(F)c4)nn13)CCCC2`, for which the cell number change is -7.35%.

As for `c1cnc(SCCOc2ccc3c(c2)CCC3)nc1`, the AC50 under setting [1] was 6.51 µM [rising, single point].

On to `c1ccc2c(c1)ncn2CCCCOc1ccc2c(c1)CCC2`, for which the cell number change was -77.7%. Further, the AC50 under setting [2] is 29.1 µM [falling, single point]. For the same molecule, the half-maximal activity concentration (AC50) under setting [1] was 29.1 µM [falling, single point].

For `COc1cc(-c2cc(C(=O)Nc3ccncc3)c3ccccc3n2)cc(OC)c1OC`, the cell number change was -4.82%. The AC50 under setting [1] was 32.6 µM [falling, single point].

Regarding `Cc1cc(NC(=O)CCC(=O)N(c2ccccc2C)C(C(=O)NC2CCCC2)c2ccccc2)no1` (stereo not given), the cell number change turned out to be 20.4%. Further, the concentration at half-maximal activity (AC50) under setting [1] is 0.58 µM [rising, single point].

`CCOc1ccc(NC(=O)c2ccc(N3CC4CC(C3)c3cccc(=O)n3C4)c(N)c2)cc1` (stereo not given): the cell number change was determined as 20.6%. Further, the AC50 under setting [1] was 14.6 µM [rising, partial curve].

As to `O=c1c2ccccc2nnn1COc1cccc2ccccc12`, the cell number change turned out to be 10.9%.

On to `O=C(CCCSc1nc2ccccc2[nH]1)Nc1nnc(C2CC2)s1`, for which the cell number change was 11.4%. In addition, under setting [1], the concentration at half-maximal activity (AC50) was 4.11 µM [falling, single point].

Regarding `Cc1ccc([C@@H]2[C@@H]3C(=O)N(C)C(=O)[C@@H]3[C@]3(Cc4ccccc4)C(=O)N(CCO)CC(=O)N23)o1`, the cell number change came to 9.58%.

For the molecule `O=C(CSc1nnnn1C1CCCC1)Nc1ccc2c(c1)OCO2`, the cell number change came to 23.4%.

Consider `Cc1ccc(C)n1-c1ccc(C(=O)/C=C/N(C)C)cc1`, for which the cell number change is -45.4%. The concentration at half-maximal activity (AC50) under setting [2] is 29.1 µM [falling, single point]. Besides, the AC50 under setting [1] is 29.1 µM [falling, single point].

As for `COc1ccc(CCNC(=O)CS(=O)Cc2nc(-c3ccccc3Cl)oc2C)cc1OC` (stereo not given), the cell number change is -22.1%. Under setting [1], the half-maximal activity concentration (AC50) was 2.06 µM [rising, partial curve, poor fit].

`COc1ccc(CCNC(=O)Cn2c(=O)n(CCCC(=O)NCc3ccco3)c(=O)c3sccc32)cc1OC`: the cell number change was 34.6%. Also, under setting [2], the concentration at half-maximal activity (AC50) was 0.651 µM [rising, full curve].

`COCCn1c(Br)nc2c1c(=O)n(C)c(=O)n2C`: the cell number change is 16.1%.

Turning to `Cc1nc(N2CCN(c3ccccn3)CC2)c2c(C)c(C(=O)Nc3ccc(F)c(Cl)c3)sc2n1`, the cell number change was determined as 22.1%. Besides, under setting [1], the half-maximal activity concentration (AC50) is 9.2 µM [falling, partial curve].

Values taken from PubChem BioAssay AID2685 (National Center for Advancing Translational Sciences (NCATS), 2010).
